{
  "source": "paper PMC12231567",
  "binders": {"B1": {"name": "CeMAT-3 (APC8), endogenous in C. elegans embryos (protein, UniProt Q19294 1-673)", "chain": "MNVSFSTPVQNSTASRLALIQQAAARSGALPPAGQYRGSKLSPFDVSQMSGVSISMVERAKINGPEFVEELEWLRQQTTSRCFLDAEMWTNEILAHLPDKWCAPNTLNLYNQVSELVLDNTRSPMASPASNSLYAPGEDQMPTVKRNHTSRFAQSLIKNKEFRRAAFFLEKTMNGNKLDHFLHFRCLFLAYYQEHLENDAEGIERKTSFAEERSPFSLLYQRMEDKKLRENEDVWFEYLMGLLEVELGLKDLAEKSFRNVVIREPRIWPAWEALSRLIADIEDADKFVTSAEVKSLWMGDWFMTLVLQRFHQHSMAIQKAEQLVTRGMTGLPMIITKIAACSNARHDHDQAISNFEDVRKADPYRLGDLHLLSDSLYIRNDQKKLSTLAIEVYKVHKFRWETCCIVANYHAIRRDSEHAIKFFQRALRLNPGLAALWVLIGHEFMEMKNNAAACVSYRRAIEIDPADHRGWYGLGQMYDIMKMPAYALFYYQEAQKCKPHDSRLLVALGDIYSKLNRIEDAEKCFTGAYLFGDVEGNALWSLAKLHERYSDDNKAAQAFEVFLVVYELVTSAEEKIIYAIAFLANHFFKIEDFDKASEYATKCLAFETLCQEGNRLFREIAKIQARESRLPVEEAPGPSNASAAGGQEAMDTEEAPQEGGEEEMSEGEDDFSF"}, "B2": {"name": "CeFZY-1 (CDC20.1 ortholog), endogenous in C. elegans embryos (protein, UniProt Q09373 1-507)", "chain": "MNNKGRTPGSAGRTVRSSAQQNGLTMRKRDMTPTRNTNLLPNATFVGDRFLGVRLDQDELDHANHLMTSKLYSNKENLNNSMSEPNSPEKKSVEGEALKQMMRHKSTGALTDADDGDRILCYKKNLAPPPAIGYINQAKVLYSTNSVINPASSVKKSTRHVKETATKVLDGPGLTKDLYSRHLDWGCHNWVAVALGHELYLWNTETCVIKNLFEDNAPTNEGLITSVRWSQEGRYISLGYASGAVKIYDPNRPKTTEYVRELRTLRVGGASRCASIAWRKQGVMTCGYKSGDIVNHDVRISQHVVSSWGGDNGHCRDVTALEWSADENMCVSGSSDRTAKIWDGRHVRGSTVIQDPEPMFTIDEHTGQVRTAQFCSFRDGILATGGGINDGTVKLWDVKRQFQKVRELNVCETGGVGGIVFNRPYSEMLTASDDGFLRIYRFNANYKLSHEIQASNEPIMDLVGSPFDEVLIGDMEETLKVFQLFNVDKSTNILDRTAPKNVGLNVR"}, "B3": {"name": "CeMAT-1, endogenous in C. elegans embryos (protein, UniProt Q9N593 1-788)", "chain": "MKESAASVAVRPQLREVFERFPADAHRTIEDEIHEMMKCYAFDDAIFLAELHYETDKSNNSESLLLYADCLYRANKKEECYGLLSSVKLSGARLFYLLARVSYDLNKIDDCRGALFEHDDGVIRKDILEEPRVASHANLLHAQMLCDESYMDLALESCQKSLDENILLWSAIITYLRFGGHDLAHTFEKHHRKSNGLYLDSPASSLKSETPSPNVPGPSSSSAASTAEPSRLESSVRRSTRGTIASANRETRNTTSNITPRQSTPGSTPSRINPTAPRKSSRISEMTTRRTESSVTGSRSSLFTEPERPHTRATHSSRNRANAALNSDTENSNASNTRTRSGIASVTRGSSSSQRTNPVRTSIRIADAAAAANKTAKTLSQRRRNEKQPLVSRNSNLARSLSGSTNSVASTASERPSEDEVSQINPPLPSVASSLNNDEPMDIVDGVYDPEYKKLFDVYQHIALIEESISTYNWRSADALFAKLDRDIILNTSMVRLQLGRACFEQSEYRECRNILDDLHKRRKWKVDGTELLSTSMWHLQDTHALSALSQILTTESRERPQSWCAAGNCFSLQRQHTQAIECMERAIQLDKRFAYAYTLLGHELIVQDELDKAAGSFRSALLLSPRDYRAWYGLGLVHLKKEQNLTALTNIQKAVNINPTNRAMLCTLSQIEQQRGQIDTALVLIDRALTLNPLDVACRFNRSRLLFEANRNEECLVELDKLKASSPDEAFIFHLLARVHRRMGNTHLALLNYSWAAELDPRGEQNITDSNVINREEYEDDEYGSPV"}, "B4": {"name": "CeEMB-27, endogenous in C. elegans embryos (protein, UniProt G5EG38 1-655)", "chain": "MSAISPDTKSFAIPTLADEGSSSKPASSLDLPKHESIRFKPIKTLASRIDGSEYYDEASMEKVMEMLEIGRTDEAVAYADTLYSNIIDDEQQDIVTIAEYVKILVVLRQWRRISHIIARGNYHQIHIVFAYYAATALFQRKLYEDVAELSVGHLLPSNGQIGPLPVRTLSQVTGRYVEEERMKYSFANMAELDNSSKKLRMVPALMITIAESFLKLMNRDAAMICINYALSLDNTTLHVERLMAKYNLVEPAMWEKYRKVRNEQLKLHEGNHDPRILMERAQRAYEMGRFRETKKITDELFDLFGPHPECIILRIHCLTMLKDSRSLLELGHQLVSDDPHIPLPWYCVAMYYYSIGANSRARNFISKCTMMDSTFAEGWVAFGHILHYEVEHEQSMSCYYRASKLVDKSSEPFLYTSLQYSTHSQKLSKKFMGEAVARAPNDPLIRHEEACVAYTAKSYAEADILFRTVLYMVTETDEIIPIEEVLKKKIDDFWHPMLNNIGHIARRQGRLNEAIMFYQKAIRMEPKFVDAIASTALCYAVLGNIDKATEFFNKALAIDPFNETIRQCLSKMIQASKESYSVDQQTLPPAYNSETYFGAQEILPYCAIRKPRNDGFVVPSIVSSSQPFMSMLRDRLRRQDQLYAQEPDNDAGNQV"}, "B5": {"name": "APC2, endogenous in Arabidopsis culture cells (protein, UniProt Q8H1U5 1-865)", "chain": "MEALGSSDCNLEILETLSDDAIQEITESYDGFFTTVESLIAGTGDSLVEDEFVSHVYCLCKYGLDSLVRDHFLRSLEQAFEKGGASSFWQHFDAYSEKKHHNYGEEIQIVLCKALEEISIEKQYHEKCLSIVVHALQSFKEQSSDDRQNSDTERVHLFSRFQSMLSSTLMTTLPQHFPEILHWYFKERLEELSAIMDGDGIEEQEDDCMDLDEKLRYKNGEMDVDEGCSQGKRLGHDKLVKNIGKVVRDLRSIGFTSMAENAYASAIFLLLKAKVHDLAGDDYRTSVLESIKEWIQTVPLQFLNALLSYLGDSVSYGTTSSGLTSPLACCPSPSFSRVVTPSEGIVRWKLRLEYFAYETLQDLRIAKLFEIIVDYPESSPAIEDLKQCLEYTGQHSKLVESFISSLKYRLLTAGASTNDILHQYVSTIKALRAIDPAGVFLEAVGEPIRDYLRGRKDTIKCIVTMLTDGSGGNANGSGNPGDSLLEELMRDEESQENVGFDDDFHTDDKQAWINASRWEPDPVEADPLKGSLSQRKVDILGMLVDIIGSKEQLVNEYRVMLAEKLLNKTDYDIDTEIRTVELLKIHFGEASMQRCEIMLNDLIDSKRVNTNIKKASQTGAELRENELSVDTLTSTILSTNFWPPIQDEPLELPGPVDKLLSDYANRYHEIKTPRKLLWKKNLGTVKLELQFEDRAMQFTVSPTHAAIIMQFQEKKSWTYKDLAEVIGIPIDALNRRVNFWISKGVLRESTGANSNSSVLTLVESITDSGKNEGEELLTGEEEGETSIASVEDQLRKEMTIYEKFIMGMLTNFGSMALERIHNTLKMFCVADPSYDKSLQQLQSFLSGLVSEEKLEFRDGMYLLKK"}},
  "key": {"[1]": {"target": "T1, C. elegans KNL-2, HA-tagged at its endogenous locus (C. elegans) (UniProt O44548)", "T1 sequence": "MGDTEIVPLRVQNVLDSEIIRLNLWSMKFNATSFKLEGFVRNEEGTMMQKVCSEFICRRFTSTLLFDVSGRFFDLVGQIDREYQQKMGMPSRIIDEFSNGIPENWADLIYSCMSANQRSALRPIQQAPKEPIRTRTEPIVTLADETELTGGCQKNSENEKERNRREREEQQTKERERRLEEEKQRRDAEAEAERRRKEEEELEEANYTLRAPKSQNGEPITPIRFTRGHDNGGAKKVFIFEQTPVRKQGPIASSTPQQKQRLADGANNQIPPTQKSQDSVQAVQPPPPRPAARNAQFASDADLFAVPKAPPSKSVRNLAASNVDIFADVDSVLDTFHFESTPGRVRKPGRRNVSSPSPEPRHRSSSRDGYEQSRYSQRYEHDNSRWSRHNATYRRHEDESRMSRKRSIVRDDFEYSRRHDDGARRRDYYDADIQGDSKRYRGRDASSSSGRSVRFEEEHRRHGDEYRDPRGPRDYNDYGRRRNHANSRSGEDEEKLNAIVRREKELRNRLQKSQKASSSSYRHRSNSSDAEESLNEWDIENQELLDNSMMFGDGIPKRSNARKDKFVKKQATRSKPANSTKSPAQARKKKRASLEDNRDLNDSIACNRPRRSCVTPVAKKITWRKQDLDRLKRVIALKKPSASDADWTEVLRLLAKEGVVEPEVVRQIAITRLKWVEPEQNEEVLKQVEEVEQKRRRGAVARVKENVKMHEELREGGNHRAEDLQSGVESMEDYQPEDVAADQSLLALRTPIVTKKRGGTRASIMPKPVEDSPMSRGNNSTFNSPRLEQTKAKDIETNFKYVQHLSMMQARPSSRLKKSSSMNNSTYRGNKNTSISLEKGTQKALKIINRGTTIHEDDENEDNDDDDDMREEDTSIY", "experiment": "affinity purification with mass spectrometry; IP-MS: embryo lysate of C. elegans expressing KNL-2::2xHA from the endogenous locus (lysis buffer with 500 mM NaCl, 1% NP-40, 0.25% deoxycholate); anti-HA magnetic beads overnight at 4 °C; LC-MS/MS"}, "[2]": {"target": "T2, αKNL2-N fused to the GS tag (Arabidopsis thaliana) (UniProt F4KCE9)", "T2 sequence": "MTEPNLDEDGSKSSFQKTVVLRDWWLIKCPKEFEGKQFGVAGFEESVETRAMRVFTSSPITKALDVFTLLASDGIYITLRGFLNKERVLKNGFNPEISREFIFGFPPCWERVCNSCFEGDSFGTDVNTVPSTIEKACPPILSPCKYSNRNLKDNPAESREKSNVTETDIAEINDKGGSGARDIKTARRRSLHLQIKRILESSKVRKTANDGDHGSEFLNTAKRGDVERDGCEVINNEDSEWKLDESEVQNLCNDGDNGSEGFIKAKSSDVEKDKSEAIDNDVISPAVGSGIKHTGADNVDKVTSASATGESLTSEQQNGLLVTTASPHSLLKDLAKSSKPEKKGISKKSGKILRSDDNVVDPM", "experiment": "affinity purification with mass spectrometry; GS-tagged αKNL2-N or αKNL2-C in Arabidopsis PSB-D suspension cells; Benzonase-treated extract (25 mM HEPES-KOH pH 7.4, 100 mM NaCl, 0.05% IGEPAL CA-630); IgG-coupled magnetic beads; LC-MS/MS; three purifications for each construct"}},
  "note": "These are yes or no findings as the source states them, for the method shown. In cells and extracts the contact can be indirect. A yes stands for co-enrichment or nearness to the bait. Other partners may have been found. Sequences can lack the tags named with a protein.",
  "data": [
    {"binder": "B1", "values": [
      {"measurement": "binding", "setting": "[1]", "result": "binds"}
    ]},
    {"binder": "B2", "values": [
      {"measurement": "binding", "setting": "[1]", "result": "binds"}
    ]},
    {"binder": "B3", "values": [
      {"measurement": "binding", "setting": "[1]", "result": "binds"}
    ]},
    {"binder": "B4", "values": [
      {"measurement": "binding", "setting": "[1]", "result": "binds"}
    ]},
    {"binder": "B5", "values": [
      {"measurement": "binding", "setting": "[2]", "result": "binds"}
    ]}
  ]
}
